PubChem BioAssay AID1259425 | University of Nebraska Medical Center – 2018

Aim: 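Seek colon cancer weak points whose silencing resembles KSR1 loss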 (primary screen)
Cell system: HCT116 human colon cancer cells
Reagent: siRNA pool against human genes, 50 nM siRNA
Detection: 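mRNA of six signature genes measured together by branched-DNA assay after 50 nM siRNA pool, blank removed, divided by geometric mean of two housekeeping genes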
Direction: BNIP3L mRNA: higher = more BNIP3L transcript after knockdown
Here is an unselected part of about 14,000 reagents. Not all columns of the deposit are shown. No sequences are given here. Not stated in the record: the time to read-out.

target,"BNIP3L mRNA, set 1"
CSRNP2 (GeneID 81566),0.203
RPS5 (GeneID 6193),0.0358
KLHDC4 (GeneID 54758),0.0762
PLSCR2 (GeneID 57047),0.132
ETHE1 (GeneID 23474),0.0716
UBXN7 (GeneID 26043),0.121
NUP205 (GeneID 23165),0.127

Next part; the last 2 above are carried over.
target,"BNIP3L mRNA, set 1"
UBXN7 (GeneID 26043),0.121
NUP205 (GeneID 23165),0.127
LEFTY2 (GeneID 7044),0.0793
NKIRAS1 (GeneID 28512),0.102
MAPK6 (GeneID 5597),0.079
PALM2AKAP2 (GeneID 445815),0.0895
MTRF1 (GeneID 9617),0.123
MAGEA1 (GeneID 4100),0.112
SLC12A5 (GeneID 57468),0.18
TSSK1B (GeneID 83942),0.0932
GPC4 (GeneID 2239),0.161
OR2C1 (GeneID 4993),0.183
MB (GeneID 4151),0.065
CYFIP1 (GeneID 23191),0.147
VPS54 (GeneID 51542),0.0859
